The structures given here were assigned with low confidence; some may be wrong.
Legend:
Type in all cases: in vitro ADME
[1] = Human plasma stability (Protocols 1 and 2); settings: Protocol 2, plasma pH 7.4 to 8.0, 5 μM, 37° C., tested form: HCl
[2] = Metabolic stability assay in human liver microsomes (HLM; Protocols 1 and 2); settings: Protocol 1, 1 μM, NADPH, 37° C., tested form: HCl
[3] = Metabolic stability assay in rat liver microsomes (RLM; Protocols 1 and 2); settings: Protocol 1, 1 μM, NADPH, 37° C., tested form: HCl

For `COc1cc(F)cc2[nH]cc(C(=O)OCC34CCN(CC3)CC4)c12`, the “% Remaining @ 2 h” value [1] was 48.22%, the HLM [2] was 0.48 L/h/kg and the RLM [3] was 26.02 L/h/kg.

Source: patent publication US20170166561A1, “QUINUCLIDINE COMPOUNDS FOR MODULATING ALPHA7-NICOTINIC ACETYLCHOLINE RECEPTOR ACTIVITY” (Alpharmagen, LLC, priority 2014, published 2017)
